{"source": "PubChem BioAssay AID504786 (Drosophila RNAi Screening Center, 2011)", "test": "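Knock-downs reducing HIF reporter induction by the iron chelator DFO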 (primary screen)", "cells": "Drosophila S2 cells with a stable HIF luciferase reporter", "reagent": "long dsRNA against Drosophila genes, about 0.2 µg dsRNA per well of a 384-well plate", "duration": "three days of knock-down, then 20 h of DFO before reading", "challenge": "desferrioxamine (DFO) at 100 µM, an iron chelator that mimics hypoxia, for 20 h", "measurement": "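HIF reporter luminescence in cells given 100 µM DFO for 20 h, using the mouse ldh-a hypoxia-response element, scored as per-plate z-scores; higher means greater loss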", "reading the numbers": "z-score: higher = stronger loss of HIF reporter signal", "note": "In all, the deposit lists about 21,000 reagents; this is an unselected part of those with a known target gene and a result. 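Primary screen; positive scores mean lost reporter signal, so the sign may be inverted from the usual convention.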 A plus sign joins genes that one reagent is predicted to hit. Not all columns of the deposit are shown."}
{"target gene":"CG34458","DRSC id":"DRSC06925","z-score, replicate 1":-0.2}
{"target gene":"CG17271","DRSC id":"DRSC15210","z-score, replicate 1":-0.3}
{"target gene":"DAT","DRSC id":"DRSC07394","z-score, replicate 1":-0.3}
{"target gene":"upd3","DRSC id":"DRSC19636","z-score, replicate 1":0.2}
{"target gene":"upd3","DRSC id":"DRSC19968","z-score, replicate 1":-0.2}
{"target gene":"psd","DRSC id":"DRSC03131","z-score, replicate 1":-0.3}
{"target gene":"l(2)efl","DRSC id":"DRSC04698","z-score, replicate 1":-0.1}
{"target gene":"Cpr50Cb","DRSC id":"DRSC06975","z-score, replicate 1":-0.3}
{"target gene":"CG12898","DRSC id":"DRSC06213","z-score, replicate 1":-0.3}
{"target gene":"CG33922","DRSC id":"DRSC00050","z-score, replicate 1":-0.2}
{"target gene":"Dtg","DRSC id":"DRSC15998","z-score, replicate 1":-0.3}
{"target gene":"CG4892","DRSC id":"DRSC01937","z-score, replicate 1":-0.1}
{"target gene":"RhoGEF3 (retired record)","DRSC id":"DRSC08266","z-score, replicate 1":0.3}
{"target gene":"RhoGEF3 (retired record)","DRSC id":"DRSC08353","z-score, replicate 1":-0.1}
{"target gene":"Mpp6","DRSC id":"DRSC03169","z-score, replicate 1":0.2}

As entered above.
Value for upd3 [DRSC19968] under “z-score, replicate 1”: -0.2
Cpr50Cb [DRSC06975], z-score, replicate 1: -0.3
Value for DAT [DRSC07394] under “z-score, replicate 1”: -0.3
l(2)efl [DRSC04698], z-score, replicate 1: -0.1
Mpp6 [DRSC03169], z-score, replicate 1 → 0.2

The results go on:
{"target gene":"Or10a","DRSC id":"DRSC20264","z-score, replicate 1":-0.2}
{"target gene":"icln","DRSC id":"DRSC07630","z-score, replicate 1":0}
{"target gene":"NdufA3","DRSC id":"DRSC18431","z-score, replicate 1":0.4}
{"target gene":"CG9101","DRSC id":"DRSC20152","z-score, replicate 1":0}
{"target gene":"Coq2","DRSC id":"DRSC16516","z-score, replicate 1":-0.3}
{"target gene":"CG14689","DRSC id":"DRSC14912","z-score, replicate 1":-0.2}
{"target gene":"CG32085","DRSC id":"DRSC10138","z-score, replicate 1":0}
{"target gene":"CG32085","DRSC id":"DRSC10139","z-score, replicate 1":-0.2}
{"target gene":"CG32085","DRSC id":"DRSC10576","z-score, replicate 1":-0.1}
{"target gene":"CG31883","DRSC id":"DRSC02561","z-score, replicate 1":-0.3}
{"target gene":"Pde11","DRSC id":"DRSC02028","z-score, replicate 1":-0.1}
{"target gene":"Pde11","DRSC id":"DRSC02460","z-score, replicate 1":0.1}
{"target gene":"Rpn5","DRSC id":"DRSC12367","z-score, replicate 1":0.9}
{"target gene":"Ppm1","DRSC id":"DRSC08260","z-score, replicate 1":-0.4}
{"target gene":"ND-24L","DRSC id":"DRSC10650","z-score, replicate 1":0}
{"target gene":"Rad1 + Sws1","DRSC id":"DRSC00778","z-score, replicate 1":0}
{"target gene":"CG15894","DRSC id":"DRSC18098","z-score, replicate 1":-0.2}
{"target gene":"CG15894","DRSC id":"DRSC18099","z-score, replicate 1":1.7}
{"target gene":"CG32054","DRSC id":"DRSC10684","z-score, replicate 1":-0.3}
{"target gene":"CG5089","DRSC id":"DRSC06914","z-score, replicate 1":-0.2}
{"target gene":"Mitf","DRSC id":"DRSC17212","z-score, replicate 1":-0.3}
{"target gene":"Mitf","DRSC id":"DRSC21056","z-score, replicate 1":-0.2}
{"target gene":"dome","DRSC id":"DRSC19583","z-score, replicate 1":0.8}
{"target gene":"CG14227","DRSC id":"DRSC19584","z-score, replicate 1":-0.6}
{"target gene":"Octalpha2R","DRSC id":"DRSC13319","z-score, replicate 1":-0.4}
{"target gene":"Octalpha2R","DRSC id":"DRSC15314","z-score, replicate 1":-0.7}
